Results on twelve compounds are retold here after the supplement of paper PMC9015667.

Structures can show the parent of a compound that is named as a salt. The list shows a part of the results. Most values come without repeats; read them as rough.

The subject of this experiment is M249P (parental melanoma line). Put plainly: reduction in cell viability relative to untreated/vehicle; higher = more growth inhibition. The conditions noted are these: 200 nM; 72 h.
As for `C[C@H]1c2cccc(O)c2C(=O)C2=C(O)[C@]3(O)C(=O)C(C(N)=O)=C(O)[C@@H](N(C)C)[C@@H]3[C@@H](O)[C@@H]21` [Doxycycline], the “reduction in cell viability” value was under 0%.
In the case of `Cc1cn([C@H]2O[C@@H](CO)[C@H](O)[C@H]2F)c(=O)[nH]c1=O` [Clevudine] it was 2.78%.
Under `Cc1nc(Nc2ncc(C(=O)Nc3c(C)cccc3Cl)s2)cc(N2CCN(CCO)CC2)n1` [Dasatinib] stands under 0%.
Under `CC[N+](CC)(CC)CCOc1cccc(OCC[N+](CC)(CC)CC)c1OCC[N+](CC)(CC)CC` [Gallamine triethiodide] stands 7.67%; under `Fc1ccc(C(c2ccc(F)cc2)N2CCN(C/C=C/c3ccccc3)CC2)cc1` [Flunarizine], under 0%; under `Cc1ccc(S(=O)(=O)OCC(=O)Nc2ccc(C(=O)O)c(O)c2)cc1`, under 0%.
With `Clc1ccc(C2(c3ccc(-c4cn[nH]c4)cc3)CCNCC2)cc1`, the “reduction in cell viability” value is under 0%.
For `CC(=O)O[C@@H]1[C@@H](OC(C)=O)[C@@H](O)[C@H](Oc2c(-c3ccc(O)cc3)oc3cc(O)cc(O)c3c2=O)O[C@H]1C`, the “reduction in cell viability” value was under 0%.
Under `CC(C)(O)CC(=O)NCCn1ccc2ncnc(Nc3ccc(Oc4cccc(C(F)(F)F)c4)c(Cl)c3)c21` stands under 0%; under `NS(=O)(=O)c1cc2c(cc1Cl)NCNS2(=O)=O` [Hydrochlorothiazide], under 0%; under `C[C@@H]1COC(Nc2ccc3ncnc(Nc4ccc(OCc5nccs5)c(Cl)c4)c3c2)=N1` [Varlitinib tosylate], under 0%.
In the case of `N#C[C@@H]1C[C@@H]2C[C@@H]2N1C(=O)[C@@H](N)C12CC3CC(CC(O)(C3)C1)C2` [Saxagliptin] it was under 0%.
